Results from PMC4671683.
These are yes or no findings as the source states them, for the method shown. In cells and extracts the contact can be indirect. Here binding means that the protein was enriched with, or labelled near, the bait; the list need not be complete.

Sequences of proteins named here, by UniProt entry; tags and fusion partners are left off.
UniProt P26368: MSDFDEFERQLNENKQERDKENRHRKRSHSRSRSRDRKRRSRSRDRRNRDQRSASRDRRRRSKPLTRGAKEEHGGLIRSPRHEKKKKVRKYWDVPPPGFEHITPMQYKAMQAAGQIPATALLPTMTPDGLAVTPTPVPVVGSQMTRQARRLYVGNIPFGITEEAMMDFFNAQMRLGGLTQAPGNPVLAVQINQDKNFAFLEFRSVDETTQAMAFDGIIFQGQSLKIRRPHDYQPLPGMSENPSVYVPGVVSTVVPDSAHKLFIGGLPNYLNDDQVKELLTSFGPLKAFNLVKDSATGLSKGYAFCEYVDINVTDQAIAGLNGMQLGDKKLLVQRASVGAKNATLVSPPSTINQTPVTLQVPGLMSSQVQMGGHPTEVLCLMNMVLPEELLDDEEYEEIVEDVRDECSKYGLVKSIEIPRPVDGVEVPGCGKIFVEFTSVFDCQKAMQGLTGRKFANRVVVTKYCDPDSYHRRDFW

Tests used:
[1] = target: T1, U2AF2 (human (endogenous in primary CD4 T cells and Jurkat cells)), P26368; assay: affinity purification with mass spectrometry; as the U2AF2 RIP-MS, but RNAse A digestion on the beads (10 ug/ml for 30 minutes at RT) before elution; resting or activated CD4 T cells, n = 4/group; conditions: remark: other sources report otherwise
[2] = target: U2AF2 (human (endogenous in primary CD4 T cells and Jurkat cells)) (UniProt P26368); assay: affinity purification with mass spectrometry; U2AF2 RIP from lysates (RIPA + NET-2 buffer) of resting or activated CD4 T cells, pre-cleared with mouse IgG beads, U2AF2 antibody on Protein G beads overnight at 4°C, 5 washes with NET-2, no RNase; TripleTOF 5600, n = 6/group
[3] = target: T1, U2AF2 (human (endogenous in primary CD4 …)); assay: as above; conditions: remark: other sources report otherwise

B1: U2AF1, Q01081 1-240 (protein)
chain: MAEYLASIFGTEKDKVNCSFYFKIGACRHGDRCSRLHNKPTFSQTIALLNIYRNPQNSSQSADGLRCAVSDVEMQEHYDEFFEEVFTEMEEKYGEVEEMNVCDNLGDHLVGNVYVKFRREEDAEKAVIDLNNRWFNGQPIHAELSPVTDFREACCRQYEMGECTRGGFCNFMHLKPISRELRRELYGRRRKKHRSRSRSRERRSRSRDRGRGGGGGGGGGGGGRERDRRRSRDRERSGRF
- binding [1]: binds

B2: hnRNPL (protein, UniProt P14866 1-589)
chain: MSRRLLPRAEKRRRRLEQRQQPDEQRRRSGAMVKMAAAGGGGGGGRYYGGGSEGGRAPKRLKTDNAGDQHGGGGGGGGGAGAAGGGGGGENYDDPHKTPASPVVHIRGLIDGVVEADLVEALQEFGPISYVVVMPKKRQALVEFEDVLGACNAVNYAADNQIYIAGHPAFVNYSTSQKISRPGDSDDSRSVNSVLLFTILNPIYSITTDVLYTICNPCGPVQRIVIFRKNGVQAMVEFDSVQSAQRAKASLNGADIYSGCCTLKIEYAKPTRLNVFKNDQDTWDYTNPNLSGQGDPGSNPNKRQRQPPLLGDHPAEYGGPHGGYHSHYHDEGYGPPPPHYEGRRMGPPVGGHRRGPSRYGPQYGHPPPPPPPPEYGPHADSPVLMVYGLDQSKMNCDRVFNVFCLYGNVEKVKFMKSKPGAAMVEMADGYAVDRAITHLNNNFMFGQKLNVCVSKQPAIMPGQSYGLEDGSCSYKDFSESRNNRFSTPEQAAKNRIQHPSNVLHFFNAPLEVTEENFFEICDELGVKRPSSVKVFSGKSERSSSGLLEWESKSDALETLGFLNHYQMKNPNGPYPYTLKLCFSTAQHAS
- binding [2]: binds

B3: hnRNPLL (protein, UniProt Q8WVV9 1-542)
chain: MSSSSSSPRETYEEDREYESQAKRLKTEEGEIDYSAEEGENRREATPRGGGDGGGGGRSFSQPEAGGSHHKVSVSPVVHVRGLCESVVEADLVEALEKFGTICYVMMMPFKRQALVEFENIDSAKECVTFAADEPVYIAGQQAFFNYSTSKRITRPGNTDDPSGGNKVLLLSIQNPLYPITVDVLYTVCNPVGKVQRIVIFKRNGIQAMVEFESVLCAQKAKAALNGADIYAGCCTLKIEYARPTRLNVIRNDNDSWDYTKPYLGRRDRGKGRQRQAILGEHPSSFRHDGYGSHGPLLPLPSRYRMGSRDTPELVAYPLPQASSSYMHGGNPSGSVVMVSGLHQLKMNCSRVFNLFCLYGNIEKVKFMKTIPGTALVEMGDEYAVERAVTHLNNVKLFGKRLNVCVSKQHSVVPSQIFELEDGTSSYKDFAMSKNNRFTSAGQASKNIIQPPSCVLHYYNVPLCVTEETFTKLCNDHEVLTFIKYKVFDAKPSAKTLSGLLEWECKTDAVEALTALNHYQIRVPNGSNPYTLKLCFSTSSHL
- binding [2]: binds

B4: SFRS10, P62995 1-288 (protein)
chain: MSDSGEQNYGERESRSASRSGSAHGSGKSARHTPARSRSKEDSRRSRSKSRSRSESRSRSRRSSRRHYTRSRSRSRSHRRSRSRSYSRDYRRRHSHSHSPMSTRRRHVGNRANPDPNCCLGVFGLSLYTTERDLREVFSKYGPIADVSIVYDQQSRRSRGFAFVYFENVDDAKEAKERANGMELDGRRIRVDFSITKRPHTPTPGIYMGRPTYGSSRRRDYYDRGYDRGYDDRDYYSRSYRGGGGGGGGWRAAQDRDQIYRRRSPSPYYSRGGYRSRSRSRSYSPRRY
- binding [3]: binds

B5: SFRS7 (protein, UniProt Q16629 1-238)
chain: MSRYGRYGGETKVYVGNLGTGAGKGELERAFSYYGPLRTVWIARNPPGFAFVEFEDPRDAEDAVRGLDGKVICGSRVRVELSTGMPRRSRFDRPPARRPFDPNDRCYECGEKGHYAYDCHRYSRRRRSRSRSRSHSRSRGRRYSRSRSRSRGRRSRSASPRRSRSISLRRSRSASLRRSRSGSIKGSRYFQSPSRSRSRSRSISRPRSSRSKSRSPSPKRSRSPSGSPRRSASPERMD
- binding [2]: binds

B6: SFRS3 (protein, UniProt P84103 1-164)
chain: MHRDSCPLDCKVYVGNLGNNGNKTELERAFGYYGPLRSVWVARNPPGFAFVEFEDPRDAADAVRELDGRTLCGCRVRVELSNGEKRSRNRGPPPSWGRRPRDDYRRRSPPPRRRSPRRRSFSRSRSRSLSRDRRRERSLSRERNHKPSRSFSRSRSRSRSNERK
- binding [2]: binds

B7: TRA2A (protein, UniProt Q13595 1-282)
chain: MSDVEENNFEGRESRSQSKSPTGTPARVKSESRSGSRSPSRVSKHSESHSRSRSKSRSRSRRHSHRRYTRSRSHSHSHRRRSRSRSYTPEYRRRRSRSHSPMSNRRRHTGSRANPDPNTCLGVFGLSLYTTERDLREVFSRYGPLSGVNVVYDQRTGRSRGFAFVYFERIDDSKEAMERANGMELDGRRIRVDYSITKRAHTPTPGIYMGRPTHSGGGGGGGGGGGGGGGGRRRDSYYDRGYDRGYDRYEDYDYRYRRRSPSPYYSRYRSRSRSRSYSPRRY
- binding [2]: binds
